For two molecules, binding results are on record in publication PMC11304329.

No constants are given. Whether binding was seen depends on the method and setting. Binding seen in cells or lysates may run through a third protein. A yes stands for co-enrichment or nearness to the bait. Other partners may have been found.

The target in the test is FLAG-Tev-6×His (FTH)-tagged Dm65K (Drosophila). Nature of the test: affinity purification with mass spectrometry; two-step purification of FTH-Dm65K from nuclear extract of Day 3 pupae: ANTI-FLAG M2 affinity gel, elution with 3x FLAG peptide, then Ni-NTA beads; WB150 buffer (20 mM Tris-HCl pH 7.4, 150 mM NaCl, 0.1% CA-630); WT pupae as control.

B1: SmG (protein, UniProt Q9VXE0 1-76)
chain: MSKAHPPEVKKYMDKRMMLKLNGGRAVTGILRGFDPFMNVVLDDTVEECKDNTKNNIGMVVIRGNSIVMVEALDRV
On to B1, for which the binding result is on record as “binds”.

B2: SmE (protein, UniProt Q9VLV5 1-94)
chain: MSFKGNPKVQKVMVQPINLIFRYLQNRSRVQVWLYENISLRIEGHIVGFDEYMNLVLDDAEEVYVKTRQRRNLGRIMLKGDNITLIQNVSPTKD
For B2, the binding entry is on record as “binds”.
